Laboratory results as given in publication PMC11044505.

Molecular target: T1, Flag-SMN (Drosophila, wild-type transgene) (Drosophila) (UniProt Q9VV74)
T1 sequence: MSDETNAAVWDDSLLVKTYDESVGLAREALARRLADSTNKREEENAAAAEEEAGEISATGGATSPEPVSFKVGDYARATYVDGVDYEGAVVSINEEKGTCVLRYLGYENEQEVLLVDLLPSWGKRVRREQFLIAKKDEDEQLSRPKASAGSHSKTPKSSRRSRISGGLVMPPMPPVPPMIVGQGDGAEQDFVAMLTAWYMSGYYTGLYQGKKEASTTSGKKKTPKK
Test: affinity purification with mass spectrometry; Flag-SMN pulldowns from embryonic lysates expressing Flag-SMN as the sole source of SMN protein

In the case of Drosophila Traf6 (endogenous), the binding is reported as “no binding”.

These are yes or no findings as the source states them, for the method shown. In cells and extracts the contact can be indirect. These calls come from enrichment with a bait or labelling near it, and not all partners need be listed. No binding means not detected with the bait. Tags and fused reporters may be left off the sequences shown.
